# Test results from the supplement of paper PMC10077471.
# Whole data set: some 1,900 compounds, median “excess over highest single agent (ExcessHSA) synergy score, 6x6 matrix” near -83, cut for the lowest 2% near -370. The list shows a part of the results.
# Test system: NCI-H446
# Assay: excess over highest single agent (ExcessHSA) synergy score, 6x6 matrix; higher = less synergy (more negative = stronger synergy)
# Conditions: 72 h; CellTiter-Glo viability
row,Compound,excess over highest single agent
1,C[C@@H]1CN(c2c(F)c(N)c3c(=O)c(C(=O)O)cn(C4CC4)c3c2F)C[C@H](C)N1 + Cc1sc2c(c1C)C(c1ccc(Cl)cc1)=N[C@@H](CC(=O)OC(C)(C)C)c1nnc(C)n1-2 [NCGC00250412-19],-84
2,CCOc1cc2ncc(C#N)c(Nc3ccc(OCc4ccccn4)c(Cl)c3)c2cc1NC(=O)/C=C/CN(C)C + Cc1sc2c(c1C)C(c1ccc(Cl)cc1)=N[C@@H](CC(=O)OC(C)(C)C)c1nnc(C)n1-2 [NCGC00250412-19],-193
3,CC(C)C[C@H](CN)CC(=O)O + Cc1sc2c(c1C)C(c1ccc(Cl)cc1)=N[C@@H](CC(=O)OC(C)(C)C)c1nnc(C)n1-2 [NCGC00250412-19],82.6
4,Cc1cn([C@@H]2C[C@@H](O)[C@H](CO)O2)c(=O)[nH]c1=O + Cc1sc2c(c1C)C(c1ccc(Cl)cc1)=N[C@@H](CC(=O)OC(C)(C)C)c1nnc(C)n1-2 [NCGC00250412-19],21.8
5,NC(=O)c1ncn([C@@H]2O[C@H](CO)[C@@H](O)[C@H]2O)c1O + Cc1sc2c(c1C)C(c1ccc(Cl)cc1)=N[C@@H](CC(=O)OC(C)(C)C)c1nnc(C)n1-2 [NCGC00250412-19],-11
6,CCc1cc(C(N)=S)ccn1 + Cc1sc2c(c1C)C(c1ccc(Cl)cc1)=N[C@@H](CC(=O)OC(C)(C)C)c1nnc(C)n1-2 [NCGC00250412-19],-36.8
7,Cc1ccc(C(=O)Nc2ccc(S(=O)(=O)O)c3cc(S(=O)(=O)O)cc(S(=O)(=O)O)c23)cc1NC(=O)c1cccc(NC(=O)Nc2cccc(C(=O)Nc3cc(C(=O)Nc4ccc(S(=O)(=O)O)c5cc(S(=O)(=O)O)cc(S(=O)(=O)O)c45)ccc3C)c2)c1 + Cc1sc2c(c1C)C(c1ccc(Cl)cc1)=N[C@@H](CC(=O)OC(C)(C)C)c1nnc(C)n1-2 [NCGC00250412-19],16.8
8,N#CC(c1ccnc(NCCc2cccnc2)n1)c1nc2ccccc2s1 (stereo not drawn) + Cc1sc2c(c1C)C(c1ccc(Cl)cc1)=N[C@@H](CC(=O)OC(C)(C)C)c1nnc(C)n1-2 [NCGC00250412-19],4.27
9,C[C@H]1[C@H](NC(=O)/C(=N\OC(C)(C)C(=O)O)c2csc(N)n2)C(=O)N1S(=O)(=O)O + Cc1sc2c(c1C)C(c1ccc(Cl)cc1)=N[C@@H](CC(=O)OC(C)(C)C)c1nnc(C)n1-2 [NCGC00250412-19],-133
10,OC[C@H]1O[C@@H](OCCc2ccc(O)cc2)[C@H](O)[C@@H](O)[C@@H]1O + Cc1sc2c(c1C)C(c1ccc(Cl)cc1)=N[C@@H](CC(=O)OC(C)(C)C)c1nnc(C)n1-2 [NCGC00250412-19],-24.5
11,CCc1c2c(nc3ccc(OC(=O)N4CCC(N5CCCCC5)CC4)cc13)-c1cc3c(c(=O)n1C2)COC(=O)[C@]3(O)CC + Cc1sc2c(c1C)C(c1ccc(Cl)cc1)=N[C@@H](CC(=O)OC(C)(C)C)c1nnc(C)n1-2 [NCGC00250412-19],-249
12,C=C1/C(=C\C=C2/CCC[C@]3(C)[C@@H]([C@H](C)CCCC(C)(C)O)CC[C@@H]23)C[C@@H](O)C[C@@H]1O + Cc1sc2c(c1C)C(c1ccc(Cl)cc1)=N[C@@H](CC(=O)OC(C)(C)C)c1nnc(C)n1-2 [NCGC00250412-19],297
13,Oc1ccc([C@@H]2Oc3ccc(O)cc3[C@@H]3CCC[C@@H]32)cc1 + Cc1sc2c(c1C)C(c1ccc(Cl)cc1)=N[C@@H](CC(=O)OC(C)(C)C)c1nnc(C)n1-2 [NCGC00250412-19],-48.9
14,Cn1c2cc([S+](C)[O-])sc2c2cnn(Cc3cccc(N)c3)c(=O)c21 (stereo not drawn) + Cc1sc2c(c1C)C(c1ccc(Cl)cc1)=N[C@@H](CC(=O)OC(C)(C)C)c1nnc(C)n1-2 [NCGC00250412-19],-110
15,CCC[C@H](NC(=O)/C(C#N)=C/c1cccc(Br)n1)c1ccccc1 + Cc1sc2c(c1C)C(c1ccc(Cl)cc1)=N[C@@H](CC(=O)OC(C)(C)C)c1nnc(C)n1-2 [NCGC00250412-19],-190
16,C[C@@H](Oc1ccc2[nH]nc(/C=C/c3cnn(CCO)c3)c2c1)c1c(Cl)cncc1Cl + Cc1sc2c(c1C)C(c1ccc(Cl)cc1)=N[C@@H](CC(=O)OC(C)(C)C)c1nnc(C)n1-2 [NCGC00250412-19],-310
17,C[C@H]1O[C@H](O[C@H]2[C@H](O)[C@@H](O)[C@@H](O[C@H]3[C@H](O)[C@@H](O)C(O)O[C@@H]3CO)O[C@@H]2CO)[C@H](O)[C@@H](O)[C@@H]1N[C@H]1C=C(CO)[C@@H](O)[C@H](O)[C@H]1O (stereo partly drawn) + Cc1sc2c(c1C)C(c1ccc(Cl)cc1)=N[C@@H](CC(=O)OC(C)(C)C)c1nnc(C)n1-2 [NCGC00250412-19],-178
18,CNC1CCCN(c2c(F)cc3c(=O)c(C(=O)O)cn(C4CC4)c3c2OC)C1 (stereo not drawn) + Cc1sc2c(c1C)C(c1ccc(Cl)cc1)=N[C@@H](CC(=O)OC(C)(C)C)c1nnc(C)n1-2 [NCGC00250412-19],-128
19,Cn1c(CNc2ccc(C(=N)N)cc2)nc2cc(C(=O)N(CCC(=O)O)c3ccccn3)ccc21 + Cc1sc2c(c1C)C(c1ccc(Cl)cc1)=N[C@@H](CC(=O)OC(C)(C)C)c1nnc(C)n1-2 [NCGC00250412-19],-20.2
20,O=P1(NCCCl)OCCCN1CCCl (stereo not drawn) + Cc1sc2c(c1C)C(c1ccc(Cl)cc1)=N[C@@H](CC(=O)OC(C)(C)C)c1nnc(C)n1-2 [NCGC00250412-19],-10.1
21,COc1ccc(C(=O)c2c(C)n(CCN3CCOCC3)c3cc(I)ccc23)cc1 + Cc1sc2c(c1C)C(c1ccc(Cl)cc1)=N[C@@H](CC(=O)OC(C)(C)C)c1nnc(C)n1-2 [NCGC00250412-19],-72.5
22,CN1CCC(=C2c3ccccc3C=Cc3ccccc32)CC1 + Cc1sc2c(c1C)C(c1ccc(Cl)cc1)=N[C@@H](CC(=O)OC(C)(C)C)c1nnc(C)n1-2 [NCGC00250412-19],-150
23,N=C(N)NC(=N)NCCc1ccccc1 + Cc1sc2c(c1C)C(c1ccc(Cl)cc1)=N[C@@H](CC(=O)OC(C)(C)C)c1nnc(C)n1-2 [NCGC00250412-19],-24

# Copied from the list.
# For excess over highest single agent, C[C@@H]1CN(c2c(F)c(N)c3c(=O)c(C(=O)O)cn(C4CC4)c3c2F)C[C@H](C)N1 + Cc1sc2c(c1C)C(c1ccc(Cl)cc1)=N[C@@H](CC(=O)OC(C)(C)C)c1nnc(C)n1-2 [NCGC00250412-19] is entered as -84
# For excess over highest single agent, CCC[C@H](NC(=O)/C(C#N)=C/c1cccc(Br)n1)c1ccccc1 + Cc1sc2c(c1C)C(c1ccc(Cl)cc1)=N[C@@H](CC(=O)OC(C)(C)C)c1nnc(C)n1-2 [NCGC00250412-19] is entered as -190
